Amino acid sequences for entries named in this document (tags omitted). A change or cut given only in a name is not applied to a line headed by its entry.
UniProt Q9BSF4: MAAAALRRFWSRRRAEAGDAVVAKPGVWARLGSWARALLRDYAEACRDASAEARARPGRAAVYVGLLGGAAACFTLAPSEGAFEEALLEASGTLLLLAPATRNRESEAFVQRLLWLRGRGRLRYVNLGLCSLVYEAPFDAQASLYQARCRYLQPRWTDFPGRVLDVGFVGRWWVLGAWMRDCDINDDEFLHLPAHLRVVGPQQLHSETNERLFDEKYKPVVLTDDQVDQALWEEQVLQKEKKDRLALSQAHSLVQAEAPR

In paper PMC5016092:

T1: hTim10b^3XFLAG (human) (UniProt Q9Y5J6)
T1 sequence: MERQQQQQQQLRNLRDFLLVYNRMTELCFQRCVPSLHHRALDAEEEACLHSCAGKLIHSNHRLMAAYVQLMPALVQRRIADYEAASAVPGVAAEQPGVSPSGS

B1: hTim10a (protein, UniProt P62072 1-90)
chain: MDPLRAQQLAAELEVEMMADMYNRMTSACHRKCVPPHYKEAELSKGESVCLDRCVSKYLDIHERMGKKLTELSMQDEELMKRVQQSSGPA
B2: hTim22 (protein, UniProt Q9Y584 1-194)
chain: MAAAAPNAGGSAPETAGSAEAPLQYSLLLQYLVGDKRQPRLLEPGSLGGIPSPAKSEEQKMIEKAMESCAFKAALACVGGFVLGGAFGVFTAGIDTNVGFDPKDPYRTPTAKEVLKDMGQRGMSYAKNFAIVGAMFSCTECLIESYRGTSDWKNSVISGCITGGAIGFRAGLKAGAIGCGGFAAFSAAIDYYLR
B3: hTim10b (protein, UniProt Q9Y5J6 1-103)
chain: T1 sequence
B4: hTim9 (protein, UniProt Q9Y5J7 1-89)
chain: MAAQIPESDQIKQFKEFLGTYNKLTETCFLDCVKDFTTREVKPEETTCSEHCLQKYLKMTQRISMRFQEYHIQQNEALAAKAGLLGQPR

Biological target: Tim29^3XFLAG (human) (UniProt Q9BSF4)
Experiment: affinity purification with mass spectrometry; 5 mg mitochondria of FLAG-tagged protein expressing or empty-vector cells solubilised in digitonin-containing buffer, diluted to 0.1% digitonin, anti-FLAG agarose 60 min 4°C, glycine pH 2.5 elution, label-free quantitative LC-MS/MS

binding, binds:
B1
B2
B3
B4

Biological target: T1, hTim10b^3XFLAG (human)
Experiment: as above

binding, binds:
B1
B2
B4

These are yes or no findings as the source states them, for the method shown. Binding seen in cells or lysates may run through a third protein. Here binding means that the protein was enriched with, or labelled near, the bait; the list need not be complete. For some of these results: Sequences can lack the tags named with a protein.
